Experimental data: article PMC9591056, “Inhibitors of ApiAP2 protein DNA binding exhibit multistage activity against Plasmodium parasites” (PLOS Pathogens, 2022)
Negatives hold for the conditions tested. Construct, isoform or probe ends are uncertain for at least one entry. At least one verdict was read from the data and is not stated in words by the source.

Amino acid sequences for entries named in this document (tags omitted). A change or cut given only in a name is not applied to a line headed by its entry. Residues count along the entry.
UniProt P48431: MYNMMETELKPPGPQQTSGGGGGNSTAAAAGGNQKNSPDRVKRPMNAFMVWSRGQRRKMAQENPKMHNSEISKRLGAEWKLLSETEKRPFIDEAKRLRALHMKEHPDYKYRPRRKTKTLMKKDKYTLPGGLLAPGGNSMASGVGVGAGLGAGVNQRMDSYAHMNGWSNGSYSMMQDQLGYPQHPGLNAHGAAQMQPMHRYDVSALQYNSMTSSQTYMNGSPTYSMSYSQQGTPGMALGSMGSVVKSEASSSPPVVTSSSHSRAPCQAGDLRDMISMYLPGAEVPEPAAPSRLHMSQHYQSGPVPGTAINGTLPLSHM
UniProt O80337, 147-205: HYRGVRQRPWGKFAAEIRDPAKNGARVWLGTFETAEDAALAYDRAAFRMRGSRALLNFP

Legend:
SOX2 (human) = SOX2 (human) (UniProt P48431); assay: EMSA; details: EMSA: 10 mM Tris pH 7.5, 50 mM KCl, 1 mM DTT, 6 mM MgCl2, 60 ng/uL poly dIdC, 65 ng BSA, 125 ng AP2-EXP or PbAP2-Sp, 40-150 fmol probe, 15 min protein + compound, commercial protein, residues 1-317, label: 5' biotin on forward strand
[1] = target: AtERF1 AP2/ERF domain (Arabidopsis thaliana) (UniProt O80337); assay: EMSA; details: EMSA: 10 mM Tris pH 7.5, 50 mM KCl, 1 mM DTT, 6 mM MgCl2, 60 ng/uL poly dIdC, 65 ng BSA, 125 ng AP2-EXP or PbAP2-Sp, 40-150 fmol probe, 15 min protein + compound, recombinant protein, label: 5' biotin on forward strand

Sequence | binding result (SOX2 (human); 300 uM Compound A) | binding result (SOX2 (human); 300 uM Compound B) | binding result (SOX2 (human); 300 uM Compound C) | binding result (SOX2 (human)) | binding result ([1]; 300 uM Compound I) | binding result [1]
CGGAGAAACTTCTAGAACAATGGTGAAGACGGGGATC (double strand) [SOX2 gel shift probe] | no binding | binds | binds | binds | – | –
TTTAACTTTAATTATGAATATGAGGCGGCGGGTTCGTGATCAAC (double strand) [AtERF1 gel shift probe] | – | – | – | – | no binding | binds
